In the supplement of paper PMC10849652:
Some of the results follow.

By UniProt entry, the sequences of proteins in these tests, tags left out. Where a name states a change or a piece, a line headed by the entry shows the natural chain unless it says otherwise.
UniProt Q86WP2: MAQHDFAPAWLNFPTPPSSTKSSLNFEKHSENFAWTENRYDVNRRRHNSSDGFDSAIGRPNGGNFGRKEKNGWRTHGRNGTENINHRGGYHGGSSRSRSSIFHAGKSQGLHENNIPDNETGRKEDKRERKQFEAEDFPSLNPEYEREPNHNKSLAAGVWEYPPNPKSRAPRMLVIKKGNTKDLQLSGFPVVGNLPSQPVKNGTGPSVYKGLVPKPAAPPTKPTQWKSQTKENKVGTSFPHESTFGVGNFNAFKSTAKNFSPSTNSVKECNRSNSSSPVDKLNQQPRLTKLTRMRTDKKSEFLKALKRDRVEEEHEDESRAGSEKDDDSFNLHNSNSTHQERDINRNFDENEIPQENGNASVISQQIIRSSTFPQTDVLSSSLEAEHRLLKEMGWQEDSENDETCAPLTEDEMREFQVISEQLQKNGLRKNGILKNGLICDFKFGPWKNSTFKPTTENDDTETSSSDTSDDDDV
UniProt P15586: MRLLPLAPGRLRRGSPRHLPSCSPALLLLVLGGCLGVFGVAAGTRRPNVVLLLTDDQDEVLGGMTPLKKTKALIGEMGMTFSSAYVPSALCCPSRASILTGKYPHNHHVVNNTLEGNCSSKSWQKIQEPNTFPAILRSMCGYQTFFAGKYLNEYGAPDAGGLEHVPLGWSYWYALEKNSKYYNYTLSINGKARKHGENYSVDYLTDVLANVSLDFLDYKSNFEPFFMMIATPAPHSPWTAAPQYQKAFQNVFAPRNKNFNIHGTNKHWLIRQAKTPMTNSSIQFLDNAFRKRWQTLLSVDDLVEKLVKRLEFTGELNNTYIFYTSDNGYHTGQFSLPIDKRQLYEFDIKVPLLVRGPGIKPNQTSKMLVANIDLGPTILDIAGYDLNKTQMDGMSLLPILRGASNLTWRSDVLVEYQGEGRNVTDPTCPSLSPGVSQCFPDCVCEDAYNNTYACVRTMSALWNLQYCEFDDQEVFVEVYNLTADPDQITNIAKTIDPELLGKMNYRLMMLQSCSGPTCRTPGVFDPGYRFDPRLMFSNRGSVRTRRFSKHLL
UniProt O75496: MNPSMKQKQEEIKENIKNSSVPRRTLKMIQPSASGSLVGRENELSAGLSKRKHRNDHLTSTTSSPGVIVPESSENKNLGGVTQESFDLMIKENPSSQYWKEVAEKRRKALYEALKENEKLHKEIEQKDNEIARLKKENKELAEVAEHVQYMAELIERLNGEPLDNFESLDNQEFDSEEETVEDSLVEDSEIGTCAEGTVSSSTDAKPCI
UniProt P49448: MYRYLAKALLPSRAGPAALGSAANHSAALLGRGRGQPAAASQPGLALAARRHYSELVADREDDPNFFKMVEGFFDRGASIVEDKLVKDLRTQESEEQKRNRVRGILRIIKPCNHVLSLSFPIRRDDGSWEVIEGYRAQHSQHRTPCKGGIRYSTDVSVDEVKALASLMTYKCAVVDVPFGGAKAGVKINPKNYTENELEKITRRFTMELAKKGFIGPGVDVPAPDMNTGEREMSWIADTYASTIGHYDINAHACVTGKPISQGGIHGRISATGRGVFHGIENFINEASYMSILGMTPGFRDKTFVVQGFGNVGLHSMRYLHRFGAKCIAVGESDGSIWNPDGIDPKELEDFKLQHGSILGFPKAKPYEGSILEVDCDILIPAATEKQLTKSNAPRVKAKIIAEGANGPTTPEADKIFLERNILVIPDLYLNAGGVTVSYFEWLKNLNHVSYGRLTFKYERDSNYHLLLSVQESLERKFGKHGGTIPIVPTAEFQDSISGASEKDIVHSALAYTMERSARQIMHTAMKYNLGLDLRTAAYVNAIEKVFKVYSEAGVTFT
UniProt P63218: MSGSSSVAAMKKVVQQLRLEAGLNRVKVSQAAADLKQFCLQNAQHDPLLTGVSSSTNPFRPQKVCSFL
UniProt Q9UKJ3: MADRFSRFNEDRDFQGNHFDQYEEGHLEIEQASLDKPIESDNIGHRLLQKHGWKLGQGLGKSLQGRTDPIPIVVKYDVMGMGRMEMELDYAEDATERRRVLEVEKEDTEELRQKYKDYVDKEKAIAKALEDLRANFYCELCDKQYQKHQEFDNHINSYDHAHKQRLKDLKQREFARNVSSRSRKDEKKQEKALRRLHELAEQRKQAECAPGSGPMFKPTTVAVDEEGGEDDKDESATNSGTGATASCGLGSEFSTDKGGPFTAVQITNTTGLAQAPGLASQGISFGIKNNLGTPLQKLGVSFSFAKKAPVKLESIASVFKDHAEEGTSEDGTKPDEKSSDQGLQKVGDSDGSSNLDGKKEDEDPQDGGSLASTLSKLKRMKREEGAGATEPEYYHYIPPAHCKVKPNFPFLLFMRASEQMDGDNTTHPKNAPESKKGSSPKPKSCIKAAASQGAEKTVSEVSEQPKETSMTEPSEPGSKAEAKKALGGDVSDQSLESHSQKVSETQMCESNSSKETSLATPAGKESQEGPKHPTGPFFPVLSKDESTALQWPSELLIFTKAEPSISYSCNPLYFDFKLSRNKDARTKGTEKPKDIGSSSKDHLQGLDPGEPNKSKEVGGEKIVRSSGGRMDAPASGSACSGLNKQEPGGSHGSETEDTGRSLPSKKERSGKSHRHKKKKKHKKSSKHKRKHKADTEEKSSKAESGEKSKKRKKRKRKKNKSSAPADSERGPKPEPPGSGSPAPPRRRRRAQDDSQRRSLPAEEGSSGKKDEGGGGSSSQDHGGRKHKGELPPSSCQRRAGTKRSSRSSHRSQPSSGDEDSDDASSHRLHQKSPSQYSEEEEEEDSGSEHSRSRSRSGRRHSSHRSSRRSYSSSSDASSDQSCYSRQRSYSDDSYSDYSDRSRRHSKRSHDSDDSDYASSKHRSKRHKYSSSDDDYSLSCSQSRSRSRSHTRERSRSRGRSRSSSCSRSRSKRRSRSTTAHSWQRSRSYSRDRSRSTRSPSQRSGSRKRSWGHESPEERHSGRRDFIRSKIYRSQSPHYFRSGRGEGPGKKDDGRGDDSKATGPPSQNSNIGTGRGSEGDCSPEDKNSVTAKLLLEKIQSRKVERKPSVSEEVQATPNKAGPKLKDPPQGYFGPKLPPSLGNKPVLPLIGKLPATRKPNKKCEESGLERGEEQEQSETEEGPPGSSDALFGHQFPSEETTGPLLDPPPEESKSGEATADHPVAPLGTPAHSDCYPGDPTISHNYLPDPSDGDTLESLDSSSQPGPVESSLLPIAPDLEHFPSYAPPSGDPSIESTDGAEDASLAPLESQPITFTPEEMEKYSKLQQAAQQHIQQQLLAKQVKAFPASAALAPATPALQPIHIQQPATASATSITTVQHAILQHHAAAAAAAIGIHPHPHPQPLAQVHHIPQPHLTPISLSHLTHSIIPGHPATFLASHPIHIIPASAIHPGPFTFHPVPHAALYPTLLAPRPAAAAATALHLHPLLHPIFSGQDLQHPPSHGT
UniProt P36915, whole entry, looked up: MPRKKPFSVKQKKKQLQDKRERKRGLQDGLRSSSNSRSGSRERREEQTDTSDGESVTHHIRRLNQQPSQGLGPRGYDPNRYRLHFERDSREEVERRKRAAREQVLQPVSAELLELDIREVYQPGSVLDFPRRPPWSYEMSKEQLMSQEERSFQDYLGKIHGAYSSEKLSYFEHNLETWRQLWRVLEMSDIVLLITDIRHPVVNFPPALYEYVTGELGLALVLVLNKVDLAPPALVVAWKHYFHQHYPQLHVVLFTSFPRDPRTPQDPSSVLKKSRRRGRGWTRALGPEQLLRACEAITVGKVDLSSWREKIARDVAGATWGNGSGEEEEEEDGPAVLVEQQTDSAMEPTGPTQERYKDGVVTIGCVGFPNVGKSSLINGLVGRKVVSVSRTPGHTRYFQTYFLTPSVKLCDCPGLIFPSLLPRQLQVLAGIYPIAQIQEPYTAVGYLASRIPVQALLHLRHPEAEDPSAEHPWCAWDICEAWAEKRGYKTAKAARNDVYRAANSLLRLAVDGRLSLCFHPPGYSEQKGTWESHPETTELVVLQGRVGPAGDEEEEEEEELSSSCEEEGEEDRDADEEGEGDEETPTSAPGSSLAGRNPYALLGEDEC
UniProt P00505: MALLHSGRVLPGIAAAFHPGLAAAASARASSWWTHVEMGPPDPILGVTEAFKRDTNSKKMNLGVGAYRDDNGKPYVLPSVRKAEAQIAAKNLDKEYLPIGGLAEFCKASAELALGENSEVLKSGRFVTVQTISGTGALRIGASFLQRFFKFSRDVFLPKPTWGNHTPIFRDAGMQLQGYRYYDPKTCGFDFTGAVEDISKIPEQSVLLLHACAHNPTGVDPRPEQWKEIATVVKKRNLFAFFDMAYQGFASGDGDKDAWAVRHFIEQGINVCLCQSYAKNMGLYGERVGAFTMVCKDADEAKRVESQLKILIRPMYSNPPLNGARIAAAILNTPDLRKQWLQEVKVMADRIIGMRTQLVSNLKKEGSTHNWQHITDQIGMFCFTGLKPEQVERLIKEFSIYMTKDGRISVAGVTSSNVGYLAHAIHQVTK
UniProt Q96EK6: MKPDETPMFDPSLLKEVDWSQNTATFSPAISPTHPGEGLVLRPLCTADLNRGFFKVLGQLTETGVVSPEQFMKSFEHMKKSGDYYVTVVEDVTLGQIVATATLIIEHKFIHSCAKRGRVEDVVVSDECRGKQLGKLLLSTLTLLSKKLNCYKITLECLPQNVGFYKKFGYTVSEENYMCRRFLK
UniProt O60547: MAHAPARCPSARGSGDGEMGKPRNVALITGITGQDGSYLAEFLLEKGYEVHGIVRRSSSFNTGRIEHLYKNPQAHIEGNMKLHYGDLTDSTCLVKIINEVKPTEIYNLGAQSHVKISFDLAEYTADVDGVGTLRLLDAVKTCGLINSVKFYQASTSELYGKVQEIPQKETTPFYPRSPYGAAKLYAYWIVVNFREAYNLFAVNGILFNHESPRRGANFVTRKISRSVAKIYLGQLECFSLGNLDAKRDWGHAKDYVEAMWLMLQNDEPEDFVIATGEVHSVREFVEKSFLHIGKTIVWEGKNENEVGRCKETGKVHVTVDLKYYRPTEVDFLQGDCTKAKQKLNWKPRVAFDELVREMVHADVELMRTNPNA
UniProt P00367: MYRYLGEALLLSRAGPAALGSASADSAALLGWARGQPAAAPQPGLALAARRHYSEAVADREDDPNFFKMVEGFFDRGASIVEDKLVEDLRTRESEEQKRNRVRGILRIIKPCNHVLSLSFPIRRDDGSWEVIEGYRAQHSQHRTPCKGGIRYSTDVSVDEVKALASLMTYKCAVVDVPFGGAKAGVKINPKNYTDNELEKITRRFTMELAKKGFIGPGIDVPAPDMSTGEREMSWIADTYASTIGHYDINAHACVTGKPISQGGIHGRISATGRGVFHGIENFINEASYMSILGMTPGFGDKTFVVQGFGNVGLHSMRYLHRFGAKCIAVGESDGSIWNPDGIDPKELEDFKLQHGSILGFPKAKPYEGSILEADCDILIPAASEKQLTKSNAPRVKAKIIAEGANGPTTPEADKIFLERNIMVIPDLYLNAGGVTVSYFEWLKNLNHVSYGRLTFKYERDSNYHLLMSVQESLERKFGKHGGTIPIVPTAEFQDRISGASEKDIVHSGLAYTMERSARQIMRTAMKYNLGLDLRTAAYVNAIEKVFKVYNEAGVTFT
UniProt P15104, whole entry, looked up: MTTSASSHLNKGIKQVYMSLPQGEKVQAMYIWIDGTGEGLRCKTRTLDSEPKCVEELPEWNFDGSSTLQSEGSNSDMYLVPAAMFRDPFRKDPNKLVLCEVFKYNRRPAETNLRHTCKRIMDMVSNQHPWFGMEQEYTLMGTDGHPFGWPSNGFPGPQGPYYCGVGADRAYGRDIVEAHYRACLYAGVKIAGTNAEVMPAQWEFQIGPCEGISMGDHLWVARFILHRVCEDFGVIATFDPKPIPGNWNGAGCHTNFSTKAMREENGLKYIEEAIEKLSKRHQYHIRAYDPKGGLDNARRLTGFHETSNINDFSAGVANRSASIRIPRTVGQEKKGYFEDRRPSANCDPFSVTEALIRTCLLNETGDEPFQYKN
UniProt Q8IXQ4: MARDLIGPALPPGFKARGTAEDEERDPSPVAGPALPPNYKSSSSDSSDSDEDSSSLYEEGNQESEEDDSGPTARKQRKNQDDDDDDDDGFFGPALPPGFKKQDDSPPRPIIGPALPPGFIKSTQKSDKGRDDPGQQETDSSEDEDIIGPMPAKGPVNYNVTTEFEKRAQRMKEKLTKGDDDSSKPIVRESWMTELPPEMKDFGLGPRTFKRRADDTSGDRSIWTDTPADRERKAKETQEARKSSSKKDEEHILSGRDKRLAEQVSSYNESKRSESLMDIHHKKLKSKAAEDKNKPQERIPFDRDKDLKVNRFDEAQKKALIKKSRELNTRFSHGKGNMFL
UniProt Q7Z5G4, whole entry, looked up: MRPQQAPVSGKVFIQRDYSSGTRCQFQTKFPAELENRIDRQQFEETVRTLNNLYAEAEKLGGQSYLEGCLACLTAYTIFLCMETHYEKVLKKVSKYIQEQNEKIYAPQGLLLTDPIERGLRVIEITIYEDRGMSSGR
UniProt P60983, whole entry, looked up: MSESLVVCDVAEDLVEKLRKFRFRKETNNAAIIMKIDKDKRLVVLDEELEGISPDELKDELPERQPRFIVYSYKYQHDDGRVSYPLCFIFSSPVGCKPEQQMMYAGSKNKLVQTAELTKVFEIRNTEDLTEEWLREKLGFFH

Legend:
Assay in all cases: log2 fold change, soluble protein after heating vs DMSO (PISA); higher = thermal stabilisation; K562 cells, 10 uM, 30 min; active = over 0.2 and 3.5 SD of the protein, either way, in both replicates (recomputed)
[1] = compound: NC(=O)Nc1cc(-c2cccc(F)c2)sc1C(=O)N[C@H]1CCCNC1
Method in brief: (§1)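 For each measurement, 10 μM compound was applied for 30 min to K562 cells at 2×10^6 cells/mL. Aliquots were heated for 3 min across 48°C-58°C, pooled, and extracted in PBS with 0.5% NP-40 at 4°C; the supernatant after 21,000xg for 90 min was soluble protein. This was quantified by TMTpro 16plex LC-MS/MS with channel sums equalised, and thermal stability was reported relative to control samples from duplicates, on a log2 fold-change scale.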

[2] = compound: NC(=O)c1cnc(N[C@@H]2CCCC[C@@H]2N)nc1Nc1cccc(-n2nccn2)c1
Method in brief: as §1

[3] = compound: NC1(c2ccc(-c3nc4ccn5c(=O)[nH]nc5c4cc3-c3ccccc3)cc2)CCC1
Method in brief: as §1

[4] = compound: NCC(=O)Nc1ccc(-n2nc(C(F)(F)F)cc2-c2ccc3c(ccc4ccccc43)c2)cc1
Method in brief: as §1

entinostat = compound: Nc1ccccc1NC(=O)c1ccc(CNC(=O)OCc2cccnc2)cc1 [entinostat]
Method in brief: as §1

vorinostat = compound: O=C(CCCCCCC(=O)Nc1ccccc1)NO [vorinostat]
Method in brief: as §1

citarinostat = compound: O=C(CCCCCCNC(=O)c1cnc(N(c2ccccc2)c2ccccc2Cl)nc1)NO [citarinostat]
Method in brief: as §1

silmitasertib = compound: O=C(O)c1ccc2c(c1)nc(Nc1cccc(Cl)c1)c1ccncc12 [silmitasertib]
Method in brief: as §1

[5] = compound: O=C1NC(=O)C(c2cnc3ccccn23)=C1c1cn2c3c(cc(F)cc13)CN(C(=O)N1CCCCC1)CC2
Method in brief: as §1

[6] = compound: c1cc(OCCN2CCCCC2)cc(-c2n[nH]c3ccc(-c4nnc[nH]4)cc23)c1
Method in brief: as §1

Measured: log2 fold change

GOLIM4 (UniProt O00461)
inactive: [1] 0 | [2] 0.061 | [3] -0.134 | [4] 0.01 | entinostat -0.042 | vorinostat -0.083 | citarinostat -0.042 | silmitasertib 0.026 | [5] -0.05 | [6] -0.064

GPKOW (UniProt Q92917)
inactive: [1] -0.014 | [2] 0 | [3] -0.096 | [4] -0.216 | entinostat 0.042 | vorinostat 0.122 | citarinostat 0.048 | silmitasertib -0.078 | [5] -0.061 | [6] -0.01

GPBP1 isoform 2 (UniProt Q86WP2)
inactive: [1] -0.038 | [2] -0.049 | [3] -0.11 | [4] 0.064 | entinostat -0.014 | vorinostat -0.018 | citarinostat -0.037 | silmitasertib 0.029 | [5] -0.03 | [6] -0.099

GNS (UniProt P15586)
inactive: [1] 0.002 | [2] 0 | [3] -0.109 | [4] 0.01 | entinostat -0.006 | vorinostat -0.036 | citarinostat 0.019 | silmitasertib -0.026 | [5] -0.049 | [6] 0.003

GPD1L (UniProt Q8N335)
inactive: [1] 0.002 | [2] -0.007 | [3] -0.017 | [4] -0.001 | entinostat 0 | vorinostat 0.043 | citarinostat 0.012 | silmitasertib -0.051 | [5] -0.051 | [6] 0.032

GMEB2 (UniProt Q9UKD1)
inactive: [1] -0.039 | [2] -0.079 | [3] 0.056 | [4] -0.119 | entinostat 0.064 | vorinostat 0.063 | citarinostat 0.086 | silmitasertib 0.044 | [5] -0.194 | [6] -0.037

GMNN (UniProt O75496)
inactive: [1] -0.003 | [2] -0.011 | [3] -0.012 | [4] 0.04 | entinostat -0.015 | vorinostat -0.035 | citarinostat 0.002 | silmitasertib -0.074 | [5] 0.004 | [6] 0.026

GLUD2 (UniProt P49448)
inactive: [1] -0.086 | [2] -0.03 | [3] -0.006 | [4] 0.027 | entinostat -0.053 | vorinostat -0.051 | citarinostat -0.07 | silmitasertib -0.136 | [5] -0.008 | [6] -0.017

GNG5 (UniProt P63218)
inactive: [1] -0.029 | [2] 0.071 | [3] 0.056 | [4] 0.086 | entinostat 0.082 | vorinostat -0.127 | citarinostat -0.021 | silmitasertib 0.017 | [5] -0.156 | [6] -0.057

GPD2 (UniProt P43304)
inactive: [1] -0.022 | [2] 0 | [3] -0.042 | [4] -0.055 | entinostat -0.015 | vorinostat -0.056 | citarinostat 0.016 | silmitasertib -0.014 | [5] -0.003 | [6] -0.018

GPATCH8 (UniProt Q9UKJ3)
inactive: [1] 0.008 | [2] -0.023 | [3] -0.059 | [4] 0.071 | entinostat 0.005 | vorinostat 0.116 | citarinostat 0.008 | silmitasertib 0.018 | [5] 0.023 | [6] -0.069

GORASP2 isoform 3 (UniProt Q9H8Y8)
inactive: [1] -0.078 | [2] 0.061 | [3] -0.085 | [4] -0.129 | entinostat 0.037 | vorinostat 0.032 | citarinostat -0.027 | silmitasertib 0.085 | [5] -0.004 | [6] 0.027

GNL1 (UniProt P36915)
inactive: [1] -0.045 | [2] -0.071 | [3] -0.114 | [4] -0.019 | entinostat 0.001 | vorinostat 0.008 | citarinostat 0.022 | silmitasertib -0.021 | [5] -0.005 | [6] -0.011

GOT2 (UniProt P00505)
inactive: [1] -0.023 | [2] -0.024 | [3] 0.038 | [4] 0.026 | entinostat -0.016 | vorinostat -0.023 | citarinostat 0.026 | silmitasertib -0.02 | [5] -0.013 | [6] 0.015

GPN3 isoform 2 (UniProt Q9UHW5)
inactive: [1] -0.03 | [2] 0.077 | [3] -0.023 | [4] 0.061 | entinostat 0.036 | vorinostat 0.061 | citarinostat -0.002 | silmitasertib -0.014 | [5] 0.007 | [6] 0.021

Taken from the listing (2 entries):
GORASP2 isoform 3 (UniProt Q9H8Y8)
inactive: [1] -0.078 | [2] 0.061 | [3] -0.085 | [4] -0.129 | entinostat 0.037 | vorinostat 0.032 | citarinostat -0.027 | silmitasertib 0.085 | [5] -0.004 | [6] 0.027

GNL1 (UniProt P36915)
inactive: [1] -0.045 | [2] -0.071 | [3] -0.114 | [4] -0.019 | entinostat 0.001 | vorinostat 0.008 | citarinostat 0.022 | silmitasertib -0.021 | [5] -0.005 | [6] -0.011

Continuation.

GNAQ (UniProt P50148)
inactive: [1] -0.12 | [2] 0.055 | [3] 0.03 | [4] -0.003 | entinostat -0.016 | vorinostat -0.049 | citarinostat -0.044 | silmitasertib -0.002 | [5] -0.085 | [6] -0.088

GK (UniProt P32189)
inactive: [1] 0.004 | [2] 0.002 | [3] -0.033 | [4] 0.007 | entinostat -0.009 | vorinostat -0.008 | citarinostat 0.009 | silmitasertib 0.033 | [5] -0.014 | [6] -0.023

GPBP1L1 (UniProt Q9HC44)
inactive: [1] -0.013 | [2] 0.026 | [3] -0.179 | [4] -0.004 | entinostat 0.013 | vorinostat 0.039 | citarinostat -0.026 | silmitasertib 0.133 | [5] -0.003 | [6] -0.074

GNPNAT1 (UniProt Q96EK6)
inactive: [1] 0.039 | [2] 0.009 | [3] 0.002 | [4] 0.026 | entinostat -0.056 | vorinostat -0.045 | citarinostat -0.018 | silmitasertib 0.013 | [5] 0.003 | [6] -0.063

GMDS (UniProt O60547)
inactive: [1] 0.007 | [2] -0.011 | [3] -0.017 | [4] 0.038 | entinostat -0.035 | vorinostat -0.002 | citarinostat 0.012 | silmitasertib 0.019 | [5] -0.027 | [6] -0.019

GNPAT (UniProt O15228)
inactive: [1] 0.02 | [2] -0.008 | [3] -0.066 | [4] 0 | entinostat 0.021 | vorinostat -0.008 | citarinostat 0.041 | silmitasertib -0.041 | [5] -0.061 | [6] -0.02

GLOD4 isoform 2 (UniProt Q9HC38)
inactive: [1] -0.034 | [2] -0.07 | [3] -0.165 | [4] -0.052 | entinostat 0.032 | vorinostat 0.025 | citarinostat 0.008 | silmitasertib -0.017 | [5] -0.054 | [6] -0.013

GNA13 (UniProt Q14344)
inactive: [1] -0.038 | [2] 0.016 | [3] 0.038 | [4] -0.039 | entinostat -0.052 | vorinostat -0.013 | citarinostat 0.014 | silmitasertib 0.019 | [5] -0.041 | [6] -0.016

GMPPA (UniProt Q96IJ6)
inactive: [1] 0.015 | [2] 0.062 | [3] -0.056 | [4] 0 | entinostat -0.005 | vorinostat 0.002 | citarinostat 0.012 | silmitasertib -0.024 | [5] -0.039 | [6] -0.004

GLUD1 (UniProt P00367)
inactive: [1] -0.058 | [2] -0.014 | [3] -0.043 | [4] -0.032 | entinostat -0.051 | vorinostat -0.061 | citarinostat -0.023 | silmitasertib -0.095 | [5] 0.082 | [6] 0.052

GLUL (UniProt P15104)
inactive: [1] 0.059 | [2] -0.104 | [3] 0.061 | [4] 0.018 | entinostat -0.009 | vorinostat 0.04 | citarinostat -0.024 | silmitasertib 0.032 | [5] -0.012 | [6] -0.087

GPALPP1 (UniProt Q8IXQ4)
inactive: [1] 0.053 | [2] -0.012 | [3] 0.012 | [4] -0.008 | entinostat -0.003 | vorinostat 0.034 | citarinostat -0.014 | silmitasertib 0.011 | [5] -0.048 | [6] -0.056

GOLGA7 (UniProt Q7Z5G4)
inactive: [1] -0.088 | [2] -0.001 | [3] -0.031 | [4] 0.008 | entinostat 0.001 | vorinostat -0.084 | citarinostat -0.014 | silmitasertib 0.04 | [5] 0 | [6] -0.053

GOT1 (UniProt P17174)
inactive: [1] 0.026 | [2] 0.014 | [3] 0.009 | [4] -0.002 | entinostat -0.025 | vorinostat -0.007 | citarinostat 0.027 | silmitasertib -0.032 | [5] -0.015 | [6] -0.026

GMFB (UniProt P60983)
inactive: [1] 0.05 | [2] 0.012 | [3] -0.019 | [4] 0.019 | entinostat -0.003 | vorinostat -0.027 | citarinostat 0.046 | silmitasertib -0.026 | [5] -0.023 | [6] -0.011
